# Measured values as given in PubChem BioAssay AID588590 (National Center for Advancing Translational Sciences (NCATS), 2011).
# The chains behind the UniProt entries cited, without tags or fusion partners. Where a name states a change or a piece, a line headed by the entry shows the natural chain unless it says otherwise.
# UniProt Q9UNA4: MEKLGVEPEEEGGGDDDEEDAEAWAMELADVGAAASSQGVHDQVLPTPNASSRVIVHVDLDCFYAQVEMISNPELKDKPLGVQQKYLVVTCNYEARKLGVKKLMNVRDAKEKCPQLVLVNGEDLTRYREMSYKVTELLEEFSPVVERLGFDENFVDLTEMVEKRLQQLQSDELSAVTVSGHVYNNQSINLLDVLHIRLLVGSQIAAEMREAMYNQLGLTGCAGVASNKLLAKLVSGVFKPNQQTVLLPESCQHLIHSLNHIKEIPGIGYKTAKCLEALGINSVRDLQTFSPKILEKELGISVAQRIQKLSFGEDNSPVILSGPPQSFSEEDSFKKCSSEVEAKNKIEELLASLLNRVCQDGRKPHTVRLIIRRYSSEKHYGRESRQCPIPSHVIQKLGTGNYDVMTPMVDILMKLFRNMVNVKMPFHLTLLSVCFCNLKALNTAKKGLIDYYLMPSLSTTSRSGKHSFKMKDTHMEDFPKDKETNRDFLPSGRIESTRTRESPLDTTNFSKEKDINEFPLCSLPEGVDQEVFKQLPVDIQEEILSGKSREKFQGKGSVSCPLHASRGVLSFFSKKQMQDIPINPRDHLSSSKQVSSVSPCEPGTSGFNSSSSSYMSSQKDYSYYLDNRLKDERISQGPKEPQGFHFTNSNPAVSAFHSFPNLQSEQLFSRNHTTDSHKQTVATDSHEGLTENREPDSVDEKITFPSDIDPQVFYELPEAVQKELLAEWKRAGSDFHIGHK
# The whole screen tested about 390,000 compounds, of which about 4,000 (1%) were called active. Inconclusive results, whose numbers are uncertain, are shown with a selection of clear calls. Calls come from the whole dose curve; as a rule, active = well fitted inhibition curve with a large enough effect; inconclusive = small, poorly fitted or top-dose-only effect, or another doubt; inactive = no such curve, though single readings can be large or run the other way. Where the call is inconclusive, the potency comes from a doubtful curve fit.
# Molecular target: DNA polymerase iota (Homo sapiens) (UniProt Q9UNA4)
# Assay: qHTS for Inhibitors of Polymerase Iota
# Conditions: Pol iota fluorescent replication assay, 10 min; series mostly up to 115 µM; activity, negative = inhibition: at the top concentration
# Procedure, shortened: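 Pol iota at 10 nM preincubated 15 min with compounds at room temperature; reaction started with fluorescent substrate, 50 nM final. Fluorescence read kinetically at 0 and 10 min; buffer-only wells as negative control.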
# Potency is the fitted concentration of half-maximal effect.
SMILES,Potency,"activity, negative = inhibition"
CCN(C(=O)CN1CCN(c2ccc(O)cc2)CC1)c1c(N)n(Cc2ccccc2)c(=O)[nH]c1=O,"inconclusive: 28.2 µM [inhibitor, partial curve, poor fit]",
O=C1C(=O)N(CCN2CCOCC2)C(c2ccccn2)/C1=C(/O)c1ccc(F)cc1 (stereo unspecified),"inconclusive: 35.5 µM [inhibitor, single point]",
C=CCn1c(SCC(=O)Nc2ccccc2-c2ccccc2)nc2cc(C(=O)O)ccc2c1=O,,inactive: 17.3%
CS(=O)(=O)c1ccc(C(=O)OCC(=O)NCc2cccs2)cc1[N+](=O)[O-],"inconclusive: 28.2 µM [inhibitor, partial curve, poor fit]",
COc1nc(-c2ccccc2)ccc1-c1noc(-c2ccccc2Br)n1,"inconclusive: 100 µM [inhibitor, partial curve, poor fit]",
O=C(Nc1ccc2nn(-c3ccccc3)nc2c1)c1ccc(Br)o1,"inconclusive: 17.8 µM [inhibitor, partial curve, poor fit]",
COc1ccc(-c2nn3c(-c4cc(-c5ccccc5)n[nH]4)nnc3s2)cc1,,inactive: -9.86%
Cc1cc(C)c[n+](CC(=O)c2ccccc2)c1,"inconclusive: 31.6 µM [inhibitor, partial curve, poor fit]",
O=C(Nc1ccc2oc(-c3ccncc3)nc2c1)c1ccco1,"inconclusive: 39.8 µM [inhibitor, full curve]",
CCOC(=O)CSc1nnc(CNc2cccc(Cl)c2)n1C,,inactive: 3.94%
CCN(CC)S(=O)(=O)c1ccc(C(=O)NCCSc2c(-c3ccc(C)cc3)[nH]c3ccccc23)cc1,,inactive: -6.83%
NC(=O)C1CCN(c2nc(-c3ccc4ccccc4c3)cs2)CC1,"inconclusive: 39.8 µM [inhibitor, single point]",
C=CCn1c(N/N=C/c2ccc(O)cc2)nc2ccccc2c1=O,,inactive: 21.6%
CCOC(=O)c1ccc(NS(=O)(=O)c2ccc(SC)cc2)cc1,active: 79.4 µM,
O=C(COC(=O)c1ccc(S(=O)(=O)Nc2ccccc2)cc1)NCc1ccco1,,inactive: 0.936%
CCN(CC)S(=O)(=O)c1ccc(C)c(NC(=O)CN2CCN(Cc3ccccc3)CC2)c1,"inconclusive: 89.1 µM [inhibitor, partial curve, poor fit]",
Cc1ccc(C)c(OCC(O)CN2C(C)CCCC2C)c1 (stereo unspecified),"inconclusive: 14.1 µM [inhibitor, single point]",
NNC(=O)c1ccc(CSc2n[nH]c(=O)[nH]c2=O)cc1,"inconclusive: 56.2 µM [inhibitor, partial curve, poor fit]",
O=S(=O)(c1ccc(Cl)cc1)c1cc(O)ccc1O,"inconclusive: 22.4 µM [inhibitor, partial curve, poor fit]",
Cc1cccc(-n2c(=S)[nH]c3c(oc4ccccc43)c2=O)c1,"inconclusive: 89.1 µM [inhibitor, single point]",
CC1=C(C(=O)Nc2ccccc2)C(c2ccncc2)n2nc(SCc3ccccc3F)nc2N1 (stereo unspecified),,inactive: -7.13%
CCOC(=O)C1=C(O)/C(=C\c2ccc(CNC(=O)C(=O)Nc3ccccc3)o2)N=C1C,active: 17.8 µM,

SMILES,Potency,"activity, negative = inhibition"
Cc1[nH]nc2c1C(c1ccc(-c3ccccc3C#N)o1)C(C#N)=C(N)O2 (stereo unspecified),,inactive: 10.4%
COc1ccc(/C=N/NC(=O)c2[nH]c3ccc(Br)cc3c2-c2ccccc2)c(C(=O)O)c1OC,"inconclusive: 35.5 µM [inhibitor, single point]",
CCN1C(=O)[C@H]2[C@@H](c3ccc(-c4cc(C(C)=O)cs4)cc3)N[C@@](Cc3ccccc3)(C(=O)OC)[C@H]2C1=O,"inconclusive: 6.31 µM [inhibitor, partial curve]",
Cc1oc(-c2cccs2)nc1CS(=O)CC(=O)NC1CCCCCC1 (stereo unspecified),"inconclusive: 8.91 µM [inhibitor, single point]",
CCN(CC)CC#CCC1(O)c2ccccc2-c2ccccc21,"inconclusive: 89.1 µM [inhibitor, single point]",
Cc1ccccc1C(=O)N=c1ccn(-c2nc3ccccc3nc2NS(=O)(=O)c2ccc(F)cc2)cc1,"inconclusive: 15.8 µM [inhibitor, single point]",
O=C(O)c1ccc2c(c1)S(=O)(=O)N=C1CCCCCN12,"inconclusive: 10 µM [inhibitor, partial curve, poor fit]",
Nc1c(Br)c(=O)[nH]c(=O)n1-c1ccccc1,"inconclusive: 3.16 µM [inhibitor, full curve, poor fit]",
COc1ccc(/C(C)=N/N2C(C)CCCC2C)c(OC)c1 (stereo unspecified),,inactive: 119%
COc1c([N+](=O)[O-])ccc(N)c1N,,inactive: 73.9%
COc1ccc(NC(=S)N2CCNC(=O)C2CC(=O)Nc2cccc(Cl)c2C)cc1 (stereo unspecified),,inactive: -1.95%
COC(=O)c1c(-c2cccs2)csc1NC(=O)c1ccc(OC)c(OC)c1,,inactive: 25.3%
O=[N+]([O-])c1cccnc1N1CCC(c2cc(-c3cccc(C(F)(F)F)c3)n[nH]2)CC1,"inconclusive: 31.6 µM [inhibitor, single point]",
COc1ccccc1CNC(=O)C1CCN(S(=O)(=O)c2ccc3c(ccn3C)c2)CC1,,inactive: -14.3%
CCCn1c(=O)c2[nH]c(-c3ccc(S(=O)(=O)O)cc3)nc2n(CCC)c1=O,inactive,
CCN1C(c2ccccc2)=C(c2ccccc2)S/C1=C/C=C1\SC(=S)N(C)C1=O,"inconclusive: 3.55 µM [inhibitor, full curve, poor fit]",
Cc1ccc(-c2cc(C(=O)N/N=C/c3ccc(Cl)cc3)n[nH]2)o1,"inconclusive: 79.4 µM [inhibitor, partial curve, poor fit]",
O=C(COc1ccccc1F)Nc1nc(-c2ccccn2)cs1,"inconclusive: 20 µM [inhibitor, partial curve]",
O=S(=O)(CCSc1ccccn1)c1nc2ccccc2s1,"inconclusive: 20 µM [inhibitor, partial curve]",
O=C(O)CCc1ccc(-c2cccs2)n1NC(=O)c1cccs1,,inactive: -0.42%
COc1ccccc1N1CC(C(=O)Nc2ccc(S(=O)(=O)N3CCOCC3)cc2)CC1=O (stereo unspecified),"inconclusive: 35.5 µM [inhibitor, single point]",
O=C(Cc1cccs1)NCC1CCCO1 (stereo unspecified),"inconclusive: 44.7 µM [inhibitor, partial curve, poor fit]",

SMILES,Potency,"activity, negative = inhibition"
COc1cc(/C=N/Nc2ccc(Cl)c(C(=O)O)c2)ccc1OC(=O)c1ccccc1F,"inconclusive: 50.1 µM [inhibitor, partial curve]",
Cc1nc(C)c(C(=O)O)s1,"inconclusive: 0.631 µM [inhibitor, full curve, poor fit]",
CCOC(=O)[C@H](CCc1ccccc1)N[C@@H](C)C(=O)N1CCC[C@@H]1C(=O)O,,inactive: 0.294%
[O-]c1c[n+](-c2ccc(-[n+]3cc([O-])on3)cc2)no1,"inconclusive: 44.7 µM [inhibitor, partial curve]",
Cc1cc(C)cc(CSCC(=O)N/N=C/c2ccc(OCC(=O)NCc3ccco3)cc2)c1,"inconclusive: 39.8 µM [inhibitor, single point]",
c1ccc(-n2ncc3c(N4CCCCC4)ncnc32)cc1,"inconclusive: 100 µM [inhibitor, single point]",
CCOc1ccc(/C=N/NC(=O)c2[nH]ncc2Br)c(O)c1,,inactive: 20.7%
Cc1cc(CSc2ccccc2)ccc1NC(=O)c1cccc([N+](=O)[O-])c1,"inconclusive: 100 µM [inhibitor, single point]",
O=C(O)C1CSC(c2ccccc2)N1C(=O)c1ccco1 (stereo unspecified),"inconclusive: 39.8 µM [inhibitor, partial curve, poor fit]",
COc1ccc(OC)c(C(O)c2coc3ccc(O)c(CN4CCOCC4)c23)c1 (stereo unspecified),"inconclusive: 14.1 µM [inhibitor, partial curve, poor fit]",
COC(=O)C1=C(C)N(CCCC(=O)O)C(=O)NC1c1cccc2ccccc12 (stereo unspecified),,inactive: 18.3%
Clc1ccc(OCc2nc3ccccc3n2Cc2ccccc2)c(Cl)c1,"inconclusive: 89.1 µM [inhibitor, single point]",
O=C(CSc1nc(-c2ccc(F)cc2)[nH]c1-c1ccccc1)Nc1ccccc1,"inconclusive: 79.4 µM [inhibitor, partial curve, poor fit]",
O=[N+]([O-])c1cccnc1S(=O)(=O)c1ccccc1,,inactive: 27.4%
CCCNC(=S)NC1CC2CCCC(C1)N2CC(C)C (stereo unspecified),"inconclusive: 79.4 µM [inhibitor, single point]",
COC(=O)c1cccc(CSc2nc(-c3ccccc3)c(C#N)c(=O)[nH]2)c1,"inconclusive: 39.8 µM [inhibitor, partial curve, poor fit]",
Cc1ccc(C(=O)/C=C/c2ccc(-c3ccc(C)cc3)o2)cc1,"inconclusive: 14.1 µM [inhibitor, full curve, poor fit]",
O=C(C1CC(=O)N(c2ccc3c(c2)OCCO3)C1)N1CCN(S(=O)(=O)c2ccccc2F)CC1 (stereo unspecified),"inconclusive: 56.2 µM [inhibitor, partial curve, poor fit]",
O=C(COc1ccccc1C(=O)OCC(=O)N1CCOCC1)Nc1ccc(Br)cc1,"inconclusive: 28.2 µM [inhibitor, partial curve, poor fit]",
Cc1cccnc1NC(=S)NC(=O)c1cncc(Br)c1,"inconclusive: 35.5 µM [inhibitor, single point]",
COc1ccc(CNC(=O)CCn2nc(C)c3c(C)n(-c4ccccc4)nc3c2=O)c(OC)c1,"inconclusive: 79.4 µM [inhibitor, single point]",
FC(F)(F)c1cc(CCN2CCNC[C@@H]2Cc2ccccc2)cc(C(F)(F)F)c1,"inconclusive: 11.2 µM [inhibitor, full curve]",
